Experimental data taken from the supplement of paper PMC11006884.
The entries are a selection whose mix differs from that of the whole data set.

Sequences of proteins named here, by UniProt entry; tags and fusion partners are left off. A change or cut given only in a name is not applied to a line headed by its entry.
UniProt Q8WVV9: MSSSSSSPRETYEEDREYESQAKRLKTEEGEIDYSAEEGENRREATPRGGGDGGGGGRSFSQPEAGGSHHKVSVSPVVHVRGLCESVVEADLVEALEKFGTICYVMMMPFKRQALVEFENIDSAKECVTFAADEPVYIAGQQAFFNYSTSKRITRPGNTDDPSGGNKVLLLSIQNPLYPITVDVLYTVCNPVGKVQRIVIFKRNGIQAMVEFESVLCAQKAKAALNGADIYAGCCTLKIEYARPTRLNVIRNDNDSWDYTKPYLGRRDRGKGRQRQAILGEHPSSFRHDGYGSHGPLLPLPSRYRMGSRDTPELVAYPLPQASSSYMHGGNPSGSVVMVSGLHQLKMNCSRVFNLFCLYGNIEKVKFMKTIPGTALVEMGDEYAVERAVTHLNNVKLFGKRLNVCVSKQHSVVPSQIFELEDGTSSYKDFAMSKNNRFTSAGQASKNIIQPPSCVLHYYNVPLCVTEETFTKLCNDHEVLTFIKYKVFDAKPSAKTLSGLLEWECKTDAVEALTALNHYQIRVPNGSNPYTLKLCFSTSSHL
UniProt Q92530: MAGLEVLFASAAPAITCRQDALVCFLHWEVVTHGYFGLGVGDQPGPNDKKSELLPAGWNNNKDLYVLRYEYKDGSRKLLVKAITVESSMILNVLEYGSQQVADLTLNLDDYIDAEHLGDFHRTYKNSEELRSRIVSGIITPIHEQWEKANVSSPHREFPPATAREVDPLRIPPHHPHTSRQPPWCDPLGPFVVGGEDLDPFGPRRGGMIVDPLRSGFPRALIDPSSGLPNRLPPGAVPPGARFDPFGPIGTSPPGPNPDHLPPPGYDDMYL
UniProt Q8N0X7: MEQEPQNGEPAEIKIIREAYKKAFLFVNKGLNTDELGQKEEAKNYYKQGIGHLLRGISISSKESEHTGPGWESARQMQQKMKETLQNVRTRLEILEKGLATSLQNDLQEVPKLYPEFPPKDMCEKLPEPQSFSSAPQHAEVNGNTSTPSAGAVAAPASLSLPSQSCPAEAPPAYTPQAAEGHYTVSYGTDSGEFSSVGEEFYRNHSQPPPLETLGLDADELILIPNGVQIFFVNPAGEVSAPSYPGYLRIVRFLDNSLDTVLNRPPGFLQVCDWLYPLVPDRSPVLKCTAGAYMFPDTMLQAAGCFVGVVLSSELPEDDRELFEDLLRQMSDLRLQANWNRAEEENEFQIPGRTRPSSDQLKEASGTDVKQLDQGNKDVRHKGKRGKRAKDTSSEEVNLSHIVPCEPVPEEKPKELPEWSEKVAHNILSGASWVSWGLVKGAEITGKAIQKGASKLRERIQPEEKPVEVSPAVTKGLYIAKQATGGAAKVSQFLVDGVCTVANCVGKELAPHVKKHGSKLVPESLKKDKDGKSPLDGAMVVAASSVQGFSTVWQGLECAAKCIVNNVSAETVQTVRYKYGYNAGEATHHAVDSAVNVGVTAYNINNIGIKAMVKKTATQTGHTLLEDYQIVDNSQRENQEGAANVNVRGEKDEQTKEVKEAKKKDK
UniProt Q8WUA2: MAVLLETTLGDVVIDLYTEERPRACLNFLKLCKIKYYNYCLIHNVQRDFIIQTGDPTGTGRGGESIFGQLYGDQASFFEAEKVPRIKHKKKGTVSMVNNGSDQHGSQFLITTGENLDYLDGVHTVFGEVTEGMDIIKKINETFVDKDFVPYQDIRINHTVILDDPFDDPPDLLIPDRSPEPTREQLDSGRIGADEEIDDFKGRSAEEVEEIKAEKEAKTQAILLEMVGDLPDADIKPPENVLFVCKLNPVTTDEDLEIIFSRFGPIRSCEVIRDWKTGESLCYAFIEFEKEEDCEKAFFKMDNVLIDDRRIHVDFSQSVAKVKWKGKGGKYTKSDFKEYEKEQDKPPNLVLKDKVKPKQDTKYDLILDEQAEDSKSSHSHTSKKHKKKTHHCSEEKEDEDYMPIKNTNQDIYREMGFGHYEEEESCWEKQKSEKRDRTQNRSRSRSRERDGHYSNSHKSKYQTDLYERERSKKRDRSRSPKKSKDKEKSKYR
UniProt Q8N8A6: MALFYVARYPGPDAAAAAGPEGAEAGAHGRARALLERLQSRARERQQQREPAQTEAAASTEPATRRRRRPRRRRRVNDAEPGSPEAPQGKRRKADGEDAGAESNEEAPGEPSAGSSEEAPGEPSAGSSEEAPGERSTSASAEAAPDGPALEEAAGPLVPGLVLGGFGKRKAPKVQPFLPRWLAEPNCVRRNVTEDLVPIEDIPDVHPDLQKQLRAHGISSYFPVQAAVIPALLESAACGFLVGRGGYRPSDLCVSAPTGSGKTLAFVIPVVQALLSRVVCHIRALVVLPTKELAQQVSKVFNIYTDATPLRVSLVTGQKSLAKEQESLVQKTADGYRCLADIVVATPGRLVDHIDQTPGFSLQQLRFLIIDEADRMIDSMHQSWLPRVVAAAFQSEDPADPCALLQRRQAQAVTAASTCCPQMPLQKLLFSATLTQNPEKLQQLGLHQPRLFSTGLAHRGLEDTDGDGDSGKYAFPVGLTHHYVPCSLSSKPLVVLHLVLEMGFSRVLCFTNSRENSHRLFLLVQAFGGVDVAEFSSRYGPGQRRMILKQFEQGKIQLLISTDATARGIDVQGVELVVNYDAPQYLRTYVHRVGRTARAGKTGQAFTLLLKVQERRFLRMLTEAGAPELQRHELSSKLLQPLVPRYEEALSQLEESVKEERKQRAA
UniProt Q8WYA6: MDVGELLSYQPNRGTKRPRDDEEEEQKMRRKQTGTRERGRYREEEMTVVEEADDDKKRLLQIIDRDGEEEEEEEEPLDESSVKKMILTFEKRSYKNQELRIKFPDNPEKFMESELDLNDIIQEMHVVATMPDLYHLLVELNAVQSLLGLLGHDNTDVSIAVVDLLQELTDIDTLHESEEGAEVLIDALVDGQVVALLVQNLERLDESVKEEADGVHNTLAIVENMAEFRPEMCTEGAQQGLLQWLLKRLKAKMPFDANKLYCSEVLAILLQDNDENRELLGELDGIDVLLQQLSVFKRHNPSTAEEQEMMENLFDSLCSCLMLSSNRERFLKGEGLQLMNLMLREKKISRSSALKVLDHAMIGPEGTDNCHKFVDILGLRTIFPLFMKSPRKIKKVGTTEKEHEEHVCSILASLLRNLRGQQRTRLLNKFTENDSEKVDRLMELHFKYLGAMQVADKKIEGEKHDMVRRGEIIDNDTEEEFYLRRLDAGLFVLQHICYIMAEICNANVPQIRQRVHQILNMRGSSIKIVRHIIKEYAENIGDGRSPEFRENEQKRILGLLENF
UniProt Q8N5Z5: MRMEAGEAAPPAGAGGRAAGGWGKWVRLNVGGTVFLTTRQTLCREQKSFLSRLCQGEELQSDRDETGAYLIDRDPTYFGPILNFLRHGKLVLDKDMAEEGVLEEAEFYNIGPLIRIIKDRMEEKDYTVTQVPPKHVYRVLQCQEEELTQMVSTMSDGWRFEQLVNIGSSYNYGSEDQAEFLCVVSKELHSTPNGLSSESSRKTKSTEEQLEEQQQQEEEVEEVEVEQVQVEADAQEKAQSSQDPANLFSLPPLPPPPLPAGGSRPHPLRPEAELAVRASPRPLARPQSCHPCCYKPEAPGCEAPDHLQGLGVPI
UniProt Q8IZ83: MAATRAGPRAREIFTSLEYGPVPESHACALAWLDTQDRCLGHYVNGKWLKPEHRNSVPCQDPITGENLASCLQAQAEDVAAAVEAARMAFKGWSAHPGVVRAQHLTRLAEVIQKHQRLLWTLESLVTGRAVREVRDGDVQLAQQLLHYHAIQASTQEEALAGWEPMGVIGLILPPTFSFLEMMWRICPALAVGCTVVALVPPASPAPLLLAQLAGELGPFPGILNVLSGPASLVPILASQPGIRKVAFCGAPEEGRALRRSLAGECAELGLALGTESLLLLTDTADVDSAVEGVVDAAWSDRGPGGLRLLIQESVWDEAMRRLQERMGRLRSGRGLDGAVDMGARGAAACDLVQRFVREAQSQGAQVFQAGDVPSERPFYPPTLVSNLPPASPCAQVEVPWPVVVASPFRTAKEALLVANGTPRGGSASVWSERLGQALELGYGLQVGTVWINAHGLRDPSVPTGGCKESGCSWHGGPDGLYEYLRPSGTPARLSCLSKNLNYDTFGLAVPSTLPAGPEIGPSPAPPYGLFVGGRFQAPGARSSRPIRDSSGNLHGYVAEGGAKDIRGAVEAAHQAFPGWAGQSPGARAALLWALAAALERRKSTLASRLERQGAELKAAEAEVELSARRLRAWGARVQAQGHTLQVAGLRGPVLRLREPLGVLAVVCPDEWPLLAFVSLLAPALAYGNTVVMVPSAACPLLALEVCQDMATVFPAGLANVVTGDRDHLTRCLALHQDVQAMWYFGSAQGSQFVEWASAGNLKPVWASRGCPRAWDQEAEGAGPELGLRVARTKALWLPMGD
UniProt Q8N201, whole entry, looked up: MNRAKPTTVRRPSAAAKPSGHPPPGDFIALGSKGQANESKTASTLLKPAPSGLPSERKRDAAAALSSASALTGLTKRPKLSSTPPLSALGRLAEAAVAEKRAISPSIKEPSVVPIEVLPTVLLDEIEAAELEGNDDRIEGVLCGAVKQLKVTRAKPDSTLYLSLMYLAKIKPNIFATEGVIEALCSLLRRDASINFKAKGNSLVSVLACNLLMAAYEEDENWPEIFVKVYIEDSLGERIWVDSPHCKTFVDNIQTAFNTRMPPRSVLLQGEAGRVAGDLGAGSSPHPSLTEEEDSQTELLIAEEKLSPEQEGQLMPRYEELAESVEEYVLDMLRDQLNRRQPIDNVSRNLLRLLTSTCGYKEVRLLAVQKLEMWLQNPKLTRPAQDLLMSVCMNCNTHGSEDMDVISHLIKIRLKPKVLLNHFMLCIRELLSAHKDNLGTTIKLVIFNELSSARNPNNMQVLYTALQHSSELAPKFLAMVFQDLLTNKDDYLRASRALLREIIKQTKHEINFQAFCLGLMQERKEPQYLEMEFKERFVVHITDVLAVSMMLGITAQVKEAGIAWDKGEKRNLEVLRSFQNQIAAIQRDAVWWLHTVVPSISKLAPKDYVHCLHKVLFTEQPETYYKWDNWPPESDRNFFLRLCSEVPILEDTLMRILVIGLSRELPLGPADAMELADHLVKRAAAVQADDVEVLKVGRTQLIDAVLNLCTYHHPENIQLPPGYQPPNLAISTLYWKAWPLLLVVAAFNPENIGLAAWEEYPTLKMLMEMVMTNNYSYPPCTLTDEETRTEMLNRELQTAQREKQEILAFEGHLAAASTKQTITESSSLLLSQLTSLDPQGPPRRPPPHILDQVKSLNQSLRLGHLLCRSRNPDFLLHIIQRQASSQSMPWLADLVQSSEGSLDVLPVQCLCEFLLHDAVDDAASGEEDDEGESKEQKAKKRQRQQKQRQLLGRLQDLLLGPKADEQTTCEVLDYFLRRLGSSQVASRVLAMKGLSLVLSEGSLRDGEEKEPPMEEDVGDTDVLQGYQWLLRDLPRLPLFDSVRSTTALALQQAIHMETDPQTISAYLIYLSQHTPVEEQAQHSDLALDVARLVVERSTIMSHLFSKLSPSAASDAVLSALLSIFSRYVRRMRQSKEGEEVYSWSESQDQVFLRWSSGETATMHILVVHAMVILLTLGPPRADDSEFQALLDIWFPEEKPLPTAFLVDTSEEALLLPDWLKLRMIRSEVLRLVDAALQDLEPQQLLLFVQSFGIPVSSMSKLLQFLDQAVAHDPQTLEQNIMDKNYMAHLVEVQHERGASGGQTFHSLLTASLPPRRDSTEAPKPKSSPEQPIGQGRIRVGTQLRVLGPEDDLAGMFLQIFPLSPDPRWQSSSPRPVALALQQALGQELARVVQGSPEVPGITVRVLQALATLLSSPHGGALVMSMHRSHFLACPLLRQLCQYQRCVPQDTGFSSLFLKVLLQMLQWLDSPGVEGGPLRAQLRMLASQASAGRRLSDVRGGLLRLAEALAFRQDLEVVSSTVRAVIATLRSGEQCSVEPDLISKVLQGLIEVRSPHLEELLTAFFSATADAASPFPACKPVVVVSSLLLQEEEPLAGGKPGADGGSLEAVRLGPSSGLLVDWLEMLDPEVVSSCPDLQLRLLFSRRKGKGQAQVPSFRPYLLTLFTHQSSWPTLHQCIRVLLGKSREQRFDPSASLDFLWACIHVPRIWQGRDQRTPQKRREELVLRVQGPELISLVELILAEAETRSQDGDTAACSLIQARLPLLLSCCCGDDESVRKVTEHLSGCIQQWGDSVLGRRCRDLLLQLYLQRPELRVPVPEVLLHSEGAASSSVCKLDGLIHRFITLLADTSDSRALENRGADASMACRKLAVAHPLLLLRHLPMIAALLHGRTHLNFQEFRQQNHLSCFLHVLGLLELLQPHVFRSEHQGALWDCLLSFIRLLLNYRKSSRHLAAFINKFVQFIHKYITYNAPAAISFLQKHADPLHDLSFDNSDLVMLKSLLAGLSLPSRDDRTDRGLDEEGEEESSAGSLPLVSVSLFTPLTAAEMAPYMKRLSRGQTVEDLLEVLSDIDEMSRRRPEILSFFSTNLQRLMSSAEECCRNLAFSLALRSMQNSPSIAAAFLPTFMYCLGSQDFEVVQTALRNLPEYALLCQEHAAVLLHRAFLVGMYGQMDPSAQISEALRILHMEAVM

The targets below were run with COC(=O)C#Cc1ccccc1 [methyl 3-phenylpropiolate] (assay: log2 ratio of iodoacetamide-alkyne labeling of the cysteine site, DMSO over compound (competition); higher = stronger covalent engagement of the cysteine by the compound, active = 1 or more). Settings: 500 µM; treatment time 1 h; system: HEK293T cell lysate.
Method in brief: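 HEK293T lysate at 2 mg/mL was treated with vehicle or electrophile (500 µM) for 1 h at ambient temperature, then labelled with iodoacetamide alkyne (1 h), clicked to sCIP-TMT reagents, pooled, digested with trypsin overnight at 37 °C, enriched on streptavidin and eluted with acid. Peptides were analysed by Orbitrap Eclipse LC-MS/MS with FAIMS and quantified in FragPipe, using duplicate channels and three replicates, with cysteines quantified in only one replicate excluded. The log2 competition ratio for each cysteine is the mean control-channel reporter intensity divided by the mean compound-channel reporter intensity.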

| Target | log2 ratio of iodoacetamide-alkyne labeling |
| --- | --- |
| CISD2 C92 (UniProt Q8N5K1) | inactive: 0.0262 |
| SRBD1 C165 (UniProt Q8N5C6) | inactive: -0.167 |
| UniProt Q8N1G2_C9 | inactive: 0.562 |
| AHCTF1 C1131 (UniProt Q8WYP5) | inactive: 0.589 |
| RBM15B C128 (UniProt Q8NDT2) | inactive: 0.668 |
| NAT14 C108 (UniProt Q8WUY8) | active: 1.05 |
| KLHL36 C263 (UniProt Q8N4N3) | inactive: -0.0546 |
| UniProt Q8TDB4_C139 | inactive: 0.481 |
| UniProt Q8WVV9_C505 | inactive: 0.137 |
| FBXO30 C592 (UniProt Q8TB52) | inactive: 0.622 |
| GATAD2B C420 (UniProt Q8WXI9) | inactive: 0.12 |
| PSMF1 C185 (UniProt Q92530) | inactive: 0.258 |
| UniProt Q8WU20_C415 | inactive: 0.241 |
| UniProt Q8N0X7_C562 | inactive: 0.00694 |
| UniProt Q8NFC6_C74 | inactive: 0.258 |
| PPIL4 C245 (UniProt Q8WUA2) | inactive: 0.169 |
| SPATA5 C27 (UniProt Q8NB90) | inactive: 0.362 |
| DDX51 C338 (UniProt Q8N8A6) | inactive: 0.461 |
| CTNNBL1 C370 (UniProt Q8WYA6) | inactive: -0.0869 |

| Target | log2 ratio of iodoacetamide-alkyne labeling |
| --- | --- |
| LRRC47 C249 (UniProt Q8N1G4) | inactive: 0.221 |
| PDCD6IP C40 (UniProt Q8WUM4) | inactive: 0.812 |
| SYNE1 C6090 (UniProt Q8NF91) | inactive: -0.08 |
| UniProt Q8NC60_C393 | inactive: 0.2 |
| UniProt Q8N5Z5_C61 | inactive: -0.111 |
| ALDH16A1 C472 (UniProt Q8IZ83) | inactive: 0.154 |
| PAF1 C218 (UniProt Q8N7H5) | inactive: 0.362 |
| SCFD1 C485 (UniProt Q8WVM8) | inactive: 0.0104 |
| SPATA5 C291 (UniProt Q8NB90) | inactive: 0.294 |
| RPTOR C86 (UniProt Q8N122) | inactive: 0.596 |
| PHF10 C134 (UniProt Q8WUB8) | inactive: 0.0674 |
| INTS1 C1701 (UniProt Q8N201) | inactive: -0.0332 |
| GATAD2B C423 (UniProt Q8WXI9) | inactive: 0.12 |
| GPD1L C9 (UniProt Q8N335) | inactive: 0.107 |
| ATXN2L C58 (UniProt Q8WWM7) | inactive: 0.348 |
| UniProt Q8NFC6_C2570 | inactive: 0.348 |
| INTS1 C643 (UniProt Q8N201) | inactive: 0.127 |
| NANP C242 (UniProt Q8TBE9) | inactive: 0.241 |
